Source: the supplement of paper PMC12889115
Some of the results follow. These are raw signals, not scaled to a control.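 In the initial screen, polymyxin B was used at a concentration that permeabilizes Salmonella's outer membrane but not its inner membrane. Maximum growth was set by DMSO wells with or without polymyxin B. Since plates varied, data were ranked per plate, and compounds giving the lowest OD600 advanced as hits.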

Tested on: Salmonella enterica serovar Typhimurium SL1344
Assay: bacterial growth OD600 after 18 h with compound and polymyxin B; higher = more bacterial growth (less inhibition)
Details: 50 µM, Mueller-Hinton broth

| SMILES | bacterial growth OD600 (polymyxin B 1 µg/mL) | bacterial growth OD600 (polymyxin B 0.75 µg/mL) |
| --- | --- | --- |
| CSCCC(=O)N1CCC(C(=O)Nc2ccc(-c3cccc(C)c3)cc2)CC1 | 1 | – |
| OCC1CCCN(c2ccc(-c3nc(COc4ccccc4)no3)cn2)C1 (stereo unspecified) | 0.718 | – |
| Cc1cc(CNC(=O)c2ccc3oc(Cc4ccccc4)nc3c2)nn1C | 1.05 | – |
| Cc1ccc(C(=O)N2CCOc3ccc(CN4C[C@@H](C)O[C@@H](C)C4)cc3C2)cc1N1CCNC1=O | – | 0.977 |
| CN(Cc1ccc(C#CCO)s1)C1CCCN(C2Cc3ccccc3C2)C1 (stereo unspecified) | 1.33 | – |
| COc1ccc(-c2nn(-c3ccccc3C)cc2CN2CCOCC2)cc1F | 0.012 | – |
| COc1ccc(-c2noc(CN(C)Cc3nc4ccc(F)cc4[nH]3)n2)cc1 | 0.857 | – |
| CCc1csc(CNC(=O)c2ccc(N3CC[C@H](O)C3)nc2)n1 | – | 0.806 |
| CC(NC(=O)CCC1(Cc2ccc(-c3ccccc3)cc2)CCC(=O)N1)c1cccs1 (stereo unspecified) | – | 0.01 |
| Cc1ccccc1CC(=O)NC1CC(C)(C)Cc2nc(N3CCOCC3)ncc21 (stereo unspecified) | – | 0.795 |
| CC(C(=O)NCCN1Cc2ccccc2OC(c2ccccc2F)C1)c1n[nH]c(=O)c2ccccc12 (stereo unspecified) | – | 0.599 |
| CO[C@H]1[C@H](NC(=O)c2ccsc2)c2ccccc2C12CCN(Cc1ccc3ncccc3c1)CC2 | – | 0.857 |
| COc1ccccc1OCc1cc(C(=O)NCc2cccc(C)n2)n[nH]1 | – | 0.839 |
| COC(C(=O)Nc1ccnn1C1CCN(C(=O)c2ccco2)CC1)c1ccccc1 (stereo unspecified) | 0.942 | – |
| COc1ccc(CN2C(=O)O[C@@H]3CN(C(=O)Nc4ccccc4)C[C@@H]32)cc1OC | – | 0.921 |
| Cc1cccc(N2CCN(CC3(O)CCCN(CC4CCC4)C3=O)CC2)n1 (stereo unspecified) | 0.869 | – |

| SMILES | bacterial growth OD600 (polymyxin B 1 µg/mL) | bacterial growth OD600 (polymyxin B 0.75 µg/mL) |
| --- | --- | --- |
| COc1cc(OC)c(OC)cc1CN(C)CC1CCCN(CCc2ccccc2F)C1 (stereo unspecified) | – | 0.785 |
| Cc1csc(CN(C)Cc2c(C(=O)N3C[C@@H](C)O[C@@H](C)C3)nc3sccn23)n1 | 0.856 | – |
| COc1cccc(CN2CCN(C(=O)CCC3(Cc4ccc(F)c(OC)c4)CCC(=O)N3)CC2=O)c1 (stereo unspecified) | – | 0.842 |
| COc1ccc(CNC(=O)CCC2CCCN(Cc3ccc(Cl)s3)C2)c(OC)c1 (stereo unspecified) | 0.927 | – |
| O=C(c1ccc(N[C@H]2CC[C@H](O)CC2)nc1)N1CCCC(c2ccccc2)CC1 (stereo partly specified) | – | 0.758 |
| CC(=O)c1ccc(OCc2cc(C(=O)NC3CCCCCC3)no2)cc1 | – | 0.521 |
| CC(=O)Nc1cc(C(=O)N2CCCC(c3ccccc3)C2)c2c(c1)nc(C)n2Cc1ccccc1 (stereo unspecified) | – | 0.764 |
| COc1ccc(NC2CCCN(C(=O)c3cnn(Cc4ccccc4)c3)C2)cc1 (stereo unspecified) | 0.842 | – |
| CC(=O)N[C@@H](CC(C)C)C(=O)N1CCc2c(cnc(C)c2CNC(=O)/C=C/c2cccs2)C1 | – | 0.825 |
| CC(=O)N1CCN(c2ccc(-c3nc(-c4cccc(Cl)c4)no3)cn2)CC1 | – | 0.253 |
| COc1ccc(-c2ncc(CN3CCCC(CO)(Cc4ccccc4F)C3)cn2)cc1 (stereo unspecified) | 0.977 | – |
| Cc1cccc(CN2CCCC(O)(CN3CCCOCC3)C2=O)c1 (stereo unspecified) | 0.918 | – |
| CN(CC(O)c1ccccc1)c1nncc(-c2cccc(F)c2)n1 (stereo unspecified) | – | 0.616 |
| CN(CCc1ccccn1)C(=O)c1coc(COc2cccc3cccnc23)n1 | – | 0.775 |
| COc1ccc(CCN2CCCC(CN(C)C(=O)Nc3ccccc3)C2)cc1 (stereo unspecified) | 1.1 | – |

Of the compounds above, 5 have a thiophene ring, fused or not:

| SMILES | bacterial growth OD600 (polymyxin B 1 µg/mL) | bacterial growth OD600 (polymyxin B 0.75 µg/mL) |
| --- | --- | --- |
| CN(Cc1ccc(C#CCO)s1)C1CCCN(C2Cc3ccccc3C2)C1 (stereo unspecified) | 1.33 | – |
| CC(NC(=O)CCC1(Cc2ccc(-c3ccccc3)cc2)CCC(=O)N1)c1cccs1 (stereo unspecified) | – | 0.01 |
| CO[C@H]1[C@H](NC(=O)c2ccsc2)c2ccccc2C12CCN(Cc1ccc3ncccc3c1)CC2 | – | 0.857 |
| COc1ccc(CNC(=O)CCC2CCCN(Cc3ccc(Cl)s3)C2)c(OC)c1 (stereo unspecified) | 0.927 | – |
| CC(=O)N[C@@H](CC(C)C)C(=O)N1CCc2c(cnc(C)c2CNC(=O)/C=C/c2cccs2)C1 | – | 0.825 |
